# Measurements from the supplement of paper PMC12067093, “Discovery and optimisation of a covalent ligand for TRIM25 and its application to targeted protein ubiquitination” (Chemical Science, 2025).
# The other results are listed elsewhere or left out.
# Compound: CC1Cc2ccccc2N1C(=O)C1CCCN(C1)C(=O)CCl (mixture of isomers) [TRIM25 ligand 11 (diastereomer mixture)]
# Assay: probe-labelled cysteine peptide fold change vs DMSO (competition) (log2 fold change); higher = less target engagement (more negative = stronger competition)
# Conditions: THP-1, incubation time: 4 h
# 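Note: competitive chemoproteomic profiling in live THP-1 cells with an iodoacetamide desthiobiotin (IA-DTB) probe, comparing probe-labelled peptide intensities in compound-treated cells against DMSO-treated controls.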
Target,probe-labelled cysteine peptide fold change (10 µM),probe-labelled cysteine peptide fold change (50 µM)
EHHADH_Q08426_623_CLYSLINEAFR (UniProt Q08426),0.303,-0.045
EED_O75530_324_SCENAIVCWKPGK (UniProt O75530),0.00407,-0.0285
EEA1_Q15075_346_DLDCQQLQSR (UniProt Q15075),-0.018,0.107
EIF2AK4_Q9P2K8_46_QDHELQALEAIYGADFQDLRPDACGPVK (UniProt Q9P2K8),0.0137,0.0073
EEF1A1_P68104_411_FLKSGDAAIVDMVPGKPMCVESFSDYPPLGR (UniProt P68104),0.947,1.14
EFL1_Q7Z2Z2_831_CGPNILVNK (UniProt Q7Z2Z2),-0.187,-0.0156
ECH1_Q13011_159+171_CPKPVIAAVHGGCIGGGVDLVTACDIR (UniProt Q13011),0.0633,-0.106
EEF2_P13639_369_YRCELLYEGPPDDEAAMGIK (UniProt P13639),-0.272,-0.21
EDC3_Q96F86_272_EFCTDSGLVVPSISYELHK (UniProt Q96F86),-0.126,0.00328
EEF2_P13639_567_DLEEDHACIPIKK (UniProt P13639),-0.0433,-0.172
EDEM1_Q92611_160_GMFVFGYDNYMAHAFPQDELNPIHCR (UniProt Q92611),0.121,-0.0252
EIF2S2_P20042_302+305_LYFLQCETCHSR (UniProt P20042),0.029,0.0527
EHHADH_Q08426_227+233_QHPGCLAQEACVR (UniProt Q08426),0.147,0.0162
ECI1_P42126_173_YCIGLNETQLGIIAPFWLK (UniProt P42126),0.00559,-0.0708
ECI2_O75521_368_LHAVNAEECNVLQGR (UniProt O75521),-0.122,-0.229
EEF2_P13639_536_SDPMVQCIIEESGEHIIAGAGELHLEICLK (UniProt P13639),0.00077,-0.00894
EIF2B5_Q13144_196_CHEDNVVVAVDSTTNR (UniProt Q13144),0.0445,0.0258
EIF2S3_P41091_96+101_LDDPSCPRPECYR (UniProt P41091),0.0209,-0.104
ECHS1_P30084_62_ALNALCDGLIDELNQALK (UniProt P30084),0.133,0.203
EEF2_P13639_693_EGALCEENMR (UniProt P13639),-0.0377,-0.115
EGLN1_Q9GZT9_127_AKPPADPAAAASPCR (UniProt Q9GZT9),-0.0729,-0.147

Target,probe-labelled cysteine peptide fold change (10 µM),probe-labelled cysteine peptide fold change (50 µM)
EEF1A1P5_Q5VTE0_363+370_NDPPMEAAGFTAQVIILNHPGQISAGYAPVLDCHMAHIACK (UniProt Q5VTE0),-0.133,-0.214
EFTUD2_Q15029_166_YDQDLCYTDILFTEQER (UniProt Q15029),-0.0633,-0.262
EIF2B5_Q13144_618_YCALLLPLLK (UniProt Q13144),0.115,0.471
ECT2_Q9H8V3_157_VIGPPVVLNCSQK (UniProt Q9H8V3),-0.183,-0.0265
EIF2AK4_Q9P2K8_1084_HGAVQLCTPLLLPR (UniProt Q9P2K8),0.0789,0.156
EDC3_Q96F86_137_SQDVAVSPQQQQCSK (UniProt Q96F86),0.292,-0.391
EHMT2_Q96KQ7_428_GFEELPLCSCR (UniProt Q96KQ7),-0.0369,-0.115
EIF2S2_P20042_284_EYVTCHTCR (UniProt P20042),0.0405,0.105
EHMT2_Q96KQ7_1098_DGEVYCIDAR (UniProt Q96KQ7),0.0875,0.303
EIF2S1_P05198_199_ADIEVACYGYEGIDAVK (UniProt P05198),-0.011,-0.087
EGLN1_Q9GZT9_201_LALEYIVPCMNK (UniProt Q9GZT9),0.0588,-0.0709
EFHD2_Q96C19_172_AAAGELQEDSGLCVLAR (UniProt Q96C19),-0.0761,-0.204
ECPAS_Q5VYK3_1503_EECNLWTEVWQENVPGSFGGIR (UniProt Q5VYK3),0.205,0.058
EHMT1_Q9H9B1_1111_LLPEFNMAEPPLIFECNHACSCWR (UniProt Q9H9B1),0.206,-0.44
EED_O75530_330_SCENAIVCWKPGK (UniProt O75530),-0.0568,-0.00525
ECI2_O75521_77_QATEGPCNMPKPGVFDLINK (UniProt O75521),-0.19,-0.218
ECPAS_Q5VYK3_386_TLSLQFVHHICITCPEIK (UniProt Q5VYK3),-0.0502,0.0579
EIF2A_Q9BY44_366_LISKPVASDSTYFAWCPDGEHILTATCAPR (UniProt Q9BY44),0.0117,0.0285
EGFL7_Q9UHF1_148_RGGCPQR (UniProt Q9UHF1),-0.0831,0.0806
EHMT2_Q96KQ7_866_ESYHDCVLLFLSR (UniProt Q96KQ7),0.116,-0.0273
EFTUD2_Q15029_144+148_TCFVDCLIEQTHPEIRK (UniProt Q15029),-0.16,-0.136

Target,probe-labelled cysteine peptide fold change (10 µM),probe-labelled cysteine peptide fold change (50 µM)
EGLN1_Q9GZT9_326_CVTCIYYLNK (UniProt Q9GZT9),0.00611,0.134
EHD4_Q9H223_493+495_LADCDCDGMLDEEEFALAK (UniProt Q9H223),-0.172,-0.0896
EIF2B4_Q9UI10_69_GAEPETGSAVSAAQCQVGPTR (UniProt Q9UI10),-0.000696,-0.226
EFTUD2_Q15029_842_LMEPYYFVEVQAPADCVSAVYTVLAR (UniProt Q15029),0.434,-0.0202
EHMT2_Q96KQ7_754_EEDGSTCLHHAAK (UniProt Q96KQ7),0.0446,0.0523
EEF2_P13639_41_STLTDSLVCK (UniProt P13639),-0.0186,-0.16
ECHDC1_Q9NTX5_133_SLGTPEDGMAVCMFMQNTLTR (UniProt Q9NTX5),0.0217,0.0214
EHHADH_Q08426_566_YCPIPDVLCELGR (UniProt Q08426),-0.00247,-0.151
EIF3A_Q14152_198_LCDNLR (UniProt Q14152),0.0878,0.126
EHMT2_Q96KQ7_946_GYENVPIPCVNGVDGEPCPEDYK (UniProt Q96KQ7),-0.0581,0.284
EGLN1_Q9GZT9_42_SSFYCCK (UniProt Q9GZT9),-0.111,-0.074
ECH1_Q13011_182_PVIAAVHGGCIGGGVDLVTACDIR (UniProt Q13011),0.101,0.132
EIF2S1_P05198_70_IGRNECVVVIR (UniProt P05198),-0.126,0.103
ECPAS_Q5VYK3_1364_LCELIR (UniProt Q5VYK3),0.0253,0.152
EHMT2_Q96KQ7_426+428_GFEELPLCSCR (UniProt Q96KQ7),0.13,-0.18
EFTUD2_Q15029_256_LAVTVCINK (UniProt Q15029),-0.0606,-0.0059
EEF1A1_P68104_411_PMCVESFSDYPPLGR (UniProt P68104),0.0668,0.0149
EEA1_Q15075_1402_VCDACFNDLQG (UniProt Q15075),-0.151,-0.0885
EHMT1_Q9H9B1_802_SPLHAAAEAGHVDICHMLVQAGANIDTCSEDQR (UniProt Q9H9B1),-0.163,-0.0515
EEF1A1_P68104_234_KDGNASGTTLLEALDCILPPTRPTDK (UniProt P68104),-0.0722,-0.115
EFTUD2_Q15029_639_VEESGEHVILGTGELYLDCVMHDLR (UniProt Q15029),0.0921,-0.058

# Two neighbouring records already listed, quoted:
Target,probe-labelled cysteine peptide fold change (10 µM),probe-labelled cysteine peptide fold change (50 µM)
ECH1_Q13011_182_PVIAAVHGGCIGGGVDLVTACDIR (UniProt Q13011),0.101,0.132
EIF2S1_P05198_70_IGRNECVVVIR (UniProt P05198),-0.126,0.103
